# Experimental data reported in the supplement of paper PMC10849652.
# By UniProt entry, the sequences of proteins in these tests, tags left out. Where a name states a change or a piece, a line headed by the entry shows the natural chain unless it says otherwise.
# UniProt Q9NVH2, whole entry, looked up: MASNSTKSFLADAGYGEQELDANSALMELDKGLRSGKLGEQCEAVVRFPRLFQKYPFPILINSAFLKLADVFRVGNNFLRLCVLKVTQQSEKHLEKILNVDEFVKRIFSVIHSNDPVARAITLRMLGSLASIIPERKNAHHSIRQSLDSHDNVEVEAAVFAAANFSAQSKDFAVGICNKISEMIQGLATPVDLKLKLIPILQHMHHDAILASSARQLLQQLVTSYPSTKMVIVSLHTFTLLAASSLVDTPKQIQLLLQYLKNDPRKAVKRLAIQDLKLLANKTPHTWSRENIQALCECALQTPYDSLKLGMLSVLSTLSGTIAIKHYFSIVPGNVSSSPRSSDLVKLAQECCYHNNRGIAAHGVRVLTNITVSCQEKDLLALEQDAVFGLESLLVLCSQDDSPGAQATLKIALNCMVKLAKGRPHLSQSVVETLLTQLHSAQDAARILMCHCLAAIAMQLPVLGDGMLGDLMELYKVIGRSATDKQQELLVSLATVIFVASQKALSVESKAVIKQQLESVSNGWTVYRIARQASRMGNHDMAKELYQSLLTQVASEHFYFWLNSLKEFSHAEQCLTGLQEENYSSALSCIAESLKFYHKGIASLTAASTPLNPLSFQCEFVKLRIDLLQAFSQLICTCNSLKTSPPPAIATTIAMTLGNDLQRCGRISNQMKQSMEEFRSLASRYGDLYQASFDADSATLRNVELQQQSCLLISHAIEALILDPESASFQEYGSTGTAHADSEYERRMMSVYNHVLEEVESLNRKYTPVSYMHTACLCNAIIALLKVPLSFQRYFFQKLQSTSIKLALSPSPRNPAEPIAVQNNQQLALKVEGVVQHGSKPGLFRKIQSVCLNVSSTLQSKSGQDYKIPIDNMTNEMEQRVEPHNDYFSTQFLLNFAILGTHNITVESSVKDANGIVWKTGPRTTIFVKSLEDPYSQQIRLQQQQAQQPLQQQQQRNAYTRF
# UniProt Q96J02: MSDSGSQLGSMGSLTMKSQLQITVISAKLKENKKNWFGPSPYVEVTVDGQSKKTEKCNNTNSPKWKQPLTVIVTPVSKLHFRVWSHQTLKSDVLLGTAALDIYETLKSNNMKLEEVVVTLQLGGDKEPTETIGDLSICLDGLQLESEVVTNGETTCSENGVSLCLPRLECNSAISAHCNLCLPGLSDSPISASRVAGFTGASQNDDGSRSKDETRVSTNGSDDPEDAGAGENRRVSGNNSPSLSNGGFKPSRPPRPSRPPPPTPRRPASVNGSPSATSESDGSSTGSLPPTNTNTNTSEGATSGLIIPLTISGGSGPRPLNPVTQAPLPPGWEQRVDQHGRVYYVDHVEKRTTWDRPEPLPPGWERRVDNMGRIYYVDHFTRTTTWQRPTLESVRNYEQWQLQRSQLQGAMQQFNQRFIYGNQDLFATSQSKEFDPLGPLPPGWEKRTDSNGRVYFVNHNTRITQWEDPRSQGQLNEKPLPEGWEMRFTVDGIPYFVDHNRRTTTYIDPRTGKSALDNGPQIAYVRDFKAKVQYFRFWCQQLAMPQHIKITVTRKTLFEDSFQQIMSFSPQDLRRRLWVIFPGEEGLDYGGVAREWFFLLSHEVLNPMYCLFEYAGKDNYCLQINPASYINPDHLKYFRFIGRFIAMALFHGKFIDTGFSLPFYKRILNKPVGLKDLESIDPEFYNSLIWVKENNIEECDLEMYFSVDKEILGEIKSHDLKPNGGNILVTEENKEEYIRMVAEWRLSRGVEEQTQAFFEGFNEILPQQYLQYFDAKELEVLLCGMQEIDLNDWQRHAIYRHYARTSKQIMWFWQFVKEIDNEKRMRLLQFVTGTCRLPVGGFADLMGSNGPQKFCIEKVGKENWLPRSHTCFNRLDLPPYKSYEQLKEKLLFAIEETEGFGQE
# UniProt Q86U28: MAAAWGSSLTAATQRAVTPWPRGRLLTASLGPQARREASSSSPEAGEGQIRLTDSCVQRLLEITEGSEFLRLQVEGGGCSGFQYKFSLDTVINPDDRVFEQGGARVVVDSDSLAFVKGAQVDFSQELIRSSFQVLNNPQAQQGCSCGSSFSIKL
# UniProt Q8NFY9: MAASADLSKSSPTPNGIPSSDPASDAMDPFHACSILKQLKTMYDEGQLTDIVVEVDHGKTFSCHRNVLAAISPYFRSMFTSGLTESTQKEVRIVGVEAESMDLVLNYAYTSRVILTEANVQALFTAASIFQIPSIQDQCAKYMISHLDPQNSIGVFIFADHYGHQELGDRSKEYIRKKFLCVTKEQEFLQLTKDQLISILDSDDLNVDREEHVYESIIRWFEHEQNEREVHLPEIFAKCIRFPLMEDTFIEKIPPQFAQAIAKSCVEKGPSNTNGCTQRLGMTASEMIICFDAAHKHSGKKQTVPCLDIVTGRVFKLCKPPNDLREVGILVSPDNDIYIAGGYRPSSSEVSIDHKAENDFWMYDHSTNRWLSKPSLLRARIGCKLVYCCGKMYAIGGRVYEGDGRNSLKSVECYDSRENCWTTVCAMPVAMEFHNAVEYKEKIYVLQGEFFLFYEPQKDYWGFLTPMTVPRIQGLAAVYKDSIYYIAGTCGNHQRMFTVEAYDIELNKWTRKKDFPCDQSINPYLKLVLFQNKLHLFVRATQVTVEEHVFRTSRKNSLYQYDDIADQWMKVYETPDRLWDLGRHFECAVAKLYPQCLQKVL
# UniProt Q9ULR0: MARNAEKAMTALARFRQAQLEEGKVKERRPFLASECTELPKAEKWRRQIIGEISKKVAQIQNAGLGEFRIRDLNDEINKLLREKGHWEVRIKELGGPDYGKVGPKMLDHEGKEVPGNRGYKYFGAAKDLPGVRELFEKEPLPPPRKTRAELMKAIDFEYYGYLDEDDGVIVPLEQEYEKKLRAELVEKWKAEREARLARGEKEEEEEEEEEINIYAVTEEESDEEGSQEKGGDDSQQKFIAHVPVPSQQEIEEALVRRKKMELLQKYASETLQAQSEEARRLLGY
# UniProt Q8N5M9: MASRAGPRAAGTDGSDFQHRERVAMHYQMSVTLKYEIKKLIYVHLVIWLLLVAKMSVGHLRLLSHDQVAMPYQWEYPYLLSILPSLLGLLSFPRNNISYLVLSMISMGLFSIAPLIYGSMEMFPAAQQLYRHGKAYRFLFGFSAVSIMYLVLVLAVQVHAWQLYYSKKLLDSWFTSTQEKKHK
# UniProt O43731: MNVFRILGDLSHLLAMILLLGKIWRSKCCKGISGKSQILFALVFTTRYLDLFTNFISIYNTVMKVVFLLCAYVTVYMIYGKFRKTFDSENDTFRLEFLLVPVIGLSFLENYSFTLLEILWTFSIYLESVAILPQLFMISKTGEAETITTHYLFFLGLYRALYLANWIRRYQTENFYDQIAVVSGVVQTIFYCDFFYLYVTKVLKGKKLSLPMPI
# UniProt Q9H910: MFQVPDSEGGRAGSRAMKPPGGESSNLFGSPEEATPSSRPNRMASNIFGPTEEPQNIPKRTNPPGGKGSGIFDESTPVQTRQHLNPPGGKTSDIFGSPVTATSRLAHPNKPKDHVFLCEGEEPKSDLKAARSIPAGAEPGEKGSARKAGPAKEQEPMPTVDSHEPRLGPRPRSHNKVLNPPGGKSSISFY
# UniProt Q9H0H0, whole entry, looked up: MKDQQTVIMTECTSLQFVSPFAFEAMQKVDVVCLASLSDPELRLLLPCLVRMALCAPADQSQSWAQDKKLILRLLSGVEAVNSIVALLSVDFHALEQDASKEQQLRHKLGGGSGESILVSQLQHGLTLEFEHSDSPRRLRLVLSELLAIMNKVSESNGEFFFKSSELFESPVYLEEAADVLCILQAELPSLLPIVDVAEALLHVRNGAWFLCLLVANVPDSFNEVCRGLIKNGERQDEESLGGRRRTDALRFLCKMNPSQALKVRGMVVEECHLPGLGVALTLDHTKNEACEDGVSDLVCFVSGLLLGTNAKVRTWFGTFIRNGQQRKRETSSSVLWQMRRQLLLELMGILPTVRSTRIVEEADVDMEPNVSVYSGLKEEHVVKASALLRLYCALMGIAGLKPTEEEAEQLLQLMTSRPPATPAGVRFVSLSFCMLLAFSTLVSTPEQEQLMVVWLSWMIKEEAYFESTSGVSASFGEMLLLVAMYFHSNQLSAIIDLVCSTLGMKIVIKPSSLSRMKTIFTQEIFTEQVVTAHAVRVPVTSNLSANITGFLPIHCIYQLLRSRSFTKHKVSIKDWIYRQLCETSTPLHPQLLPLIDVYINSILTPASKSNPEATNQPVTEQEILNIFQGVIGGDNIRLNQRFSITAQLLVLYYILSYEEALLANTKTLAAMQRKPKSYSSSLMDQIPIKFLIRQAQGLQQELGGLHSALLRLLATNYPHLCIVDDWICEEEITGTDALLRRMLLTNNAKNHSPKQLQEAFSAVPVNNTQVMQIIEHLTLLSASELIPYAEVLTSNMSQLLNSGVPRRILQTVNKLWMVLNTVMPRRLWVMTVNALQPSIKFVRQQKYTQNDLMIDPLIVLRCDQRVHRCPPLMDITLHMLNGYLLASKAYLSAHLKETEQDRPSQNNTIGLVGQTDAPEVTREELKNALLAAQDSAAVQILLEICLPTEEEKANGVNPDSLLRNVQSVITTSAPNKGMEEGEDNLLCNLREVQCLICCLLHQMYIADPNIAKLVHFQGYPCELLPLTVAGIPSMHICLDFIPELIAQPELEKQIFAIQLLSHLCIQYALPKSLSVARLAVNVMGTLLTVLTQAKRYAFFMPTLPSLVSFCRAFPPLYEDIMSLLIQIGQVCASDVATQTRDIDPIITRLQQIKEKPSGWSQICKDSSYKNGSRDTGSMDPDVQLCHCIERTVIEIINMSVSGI
# UniProt Q9BUE6: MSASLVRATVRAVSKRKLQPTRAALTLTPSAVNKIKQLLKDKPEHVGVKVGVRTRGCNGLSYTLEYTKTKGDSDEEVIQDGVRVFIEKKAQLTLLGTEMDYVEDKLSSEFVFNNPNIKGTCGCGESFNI
# UniProt O95373, whole entry, looked up: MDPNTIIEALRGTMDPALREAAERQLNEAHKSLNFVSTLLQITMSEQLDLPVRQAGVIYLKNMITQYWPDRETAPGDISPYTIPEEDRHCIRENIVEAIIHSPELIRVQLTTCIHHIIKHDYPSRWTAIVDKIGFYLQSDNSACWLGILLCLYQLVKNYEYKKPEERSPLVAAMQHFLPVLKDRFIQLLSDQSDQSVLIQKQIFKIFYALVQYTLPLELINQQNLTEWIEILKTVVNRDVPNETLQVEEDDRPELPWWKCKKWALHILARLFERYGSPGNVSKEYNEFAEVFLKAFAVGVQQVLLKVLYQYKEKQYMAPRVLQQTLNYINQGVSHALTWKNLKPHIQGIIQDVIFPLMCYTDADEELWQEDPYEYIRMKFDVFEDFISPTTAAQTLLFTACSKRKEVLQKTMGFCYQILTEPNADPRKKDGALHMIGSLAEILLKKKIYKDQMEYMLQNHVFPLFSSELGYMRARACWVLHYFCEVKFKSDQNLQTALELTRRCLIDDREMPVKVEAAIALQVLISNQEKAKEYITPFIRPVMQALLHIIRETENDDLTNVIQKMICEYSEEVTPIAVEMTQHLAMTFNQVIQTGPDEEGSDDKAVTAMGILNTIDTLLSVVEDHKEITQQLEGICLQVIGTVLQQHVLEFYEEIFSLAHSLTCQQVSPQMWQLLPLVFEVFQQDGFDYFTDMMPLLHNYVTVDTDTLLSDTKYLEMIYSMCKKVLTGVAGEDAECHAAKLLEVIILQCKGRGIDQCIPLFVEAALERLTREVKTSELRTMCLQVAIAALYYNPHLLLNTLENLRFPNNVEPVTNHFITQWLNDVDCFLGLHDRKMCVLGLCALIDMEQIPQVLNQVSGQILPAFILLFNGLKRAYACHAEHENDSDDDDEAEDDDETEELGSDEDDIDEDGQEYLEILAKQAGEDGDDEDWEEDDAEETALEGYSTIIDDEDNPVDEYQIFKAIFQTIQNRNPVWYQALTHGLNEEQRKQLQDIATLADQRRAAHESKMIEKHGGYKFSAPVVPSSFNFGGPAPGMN
# UniProt O95251, whole entry, looked up: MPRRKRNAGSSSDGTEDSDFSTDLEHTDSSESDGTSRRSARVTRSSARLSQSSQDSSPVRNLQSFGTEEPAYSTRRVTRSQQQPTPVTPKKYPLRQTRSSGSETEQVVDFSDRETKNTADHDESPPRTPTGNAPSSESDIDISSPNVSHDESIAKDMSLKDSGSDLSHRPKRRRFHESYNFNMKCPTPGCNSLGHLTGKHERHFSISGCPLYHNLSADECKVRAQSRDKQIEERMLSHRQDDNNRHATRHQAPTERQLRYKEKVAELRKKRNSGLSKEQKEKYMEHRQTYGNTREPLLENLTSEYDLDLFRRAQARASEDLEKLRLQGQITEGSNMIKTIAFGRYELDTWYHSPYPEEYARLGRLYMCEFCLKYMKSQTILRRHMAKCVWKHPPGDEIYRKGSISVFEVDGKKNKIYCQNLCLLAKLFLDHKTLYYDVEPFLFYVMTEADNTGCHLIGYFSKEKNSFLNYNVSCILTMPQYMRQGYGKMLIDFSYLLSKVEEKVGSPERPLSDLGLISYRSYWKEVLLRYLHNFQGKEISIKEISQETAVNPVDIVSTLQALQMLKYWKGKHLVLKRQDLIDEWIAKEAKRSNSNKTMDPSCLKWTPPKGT
# The list shows a part of the results.
# Tests used:
# Experiment in all cases: log2 fold change, soluble protein after heating vs DMSO (PISA); higher = thermal stabilisation; K562 lysate, 10 uM; active = over 0.2 and 3.5 SD of the protein, either way, in both replicates (recomputed)
# nilotinib = compound: Cc1cn(-c2cc(NC(=O)c3ccc(C)c(Nc4nccc(-c5cccnc5)n4)c3)cc(C(F)(F)F)c2)cn1 [nilotinib]
# In short: (§1)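 Thermal stability, expressed as log-two fold change relative to solvent controls, is given from duplicates. Crude K562 extract in PBS pH 7.4 with 1 mM MgCl2, at 1 mg/mL protein, was treated with 10 μM compound for 30 min and heated in aliquots for 3 min across 48°C-58°C. After pooling, adjustment to 0.5% NP-40 at 4°C and centrifugation at 21,000xg for 90 min, supernatant protein was measured by TMTpro 16plex LC-MS/MS with channel sums equalised.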
# [1] = compound: Cc1nc(Nc2n[nH]c3c2CN(C(=O)N[C@H](CN(C)C)c2ccccc2)C3(C)C)c2sccc2n1
# In short: as §1
# dasatinib = compound: Cc1nc(Nc2ncc(C(=O)Nc3c(C)cccc3Cl)s2)cc(N2CCN(CCO)CC2)n1 [dasatinib]
# In short: as §1
# [2] = compound: Cc1ncc(-c2ccnc(Nc3ccc(S(C)(=O)=O)cc3)n2)n1C(C)C
# In short: as §1
# [3] = compound: Cn1cc(-c2ccc3c(c2)CCN3C(=O)Cc2cccc(C(F)(F)F)c2)c2c(N)ncnc21
# In short: as §1
# quisinostat = compound: Cn1cc(CNCC2CCN(c3ncc(C(=O)NO)cn3)CC2)c2ccccc21 [quisinostat]
# In short: as §1
# tipifarnib = compound: Cn1cncc1[C@@](N)(c1ccc(Cl)cc1)c1ccc2c(c1)c(-c1cccc(Cl)c1)cc(=O)n2C [tipifarnib]
# In short: as §1
# [4] = compound: NC(=O)Nc1cc(-c2cccc(F)c2)sc1C(=O)N[C@H]1CCCNC1
# In short: as §1
# [5] = compound: NC(=O)c1cnc(N[C@@H]2CCCC[C@@H]2N)nc1Nc1cccc(-n2nccn2)c1
# In short: as §1
# [6] = compound: NC1(c2ccc(-c3nc4ccn5c(=O)[nH]nc5c4cc3-c3ccccc3)cc2)CCC1
# In short: as §1
Target,log2 fold change (nilotinib),log2 fold change [1],log2 fold change (dasatinib),log2 fold change [2],log2 fold change [3],log2 fold change (quisinostat),log2 fold change (tipifarnib),log2 fold change [4],log2 fold change [5],log2 fold change [6]
ISOC1 (UniProt Q96CN7),inactive: 0.025,inactive: -0.008,inactive: 0.025,inactive: -0.008,inactive: -0.001,inactive: 0.025,inactive: 0.047,inactive: 0.041,inactive: -0.012,inactive: 0.017
INTS7 (UniProt Q9NVH2),inactive: -0.02,inactive: -0.014,inactive: -0.004,inactive: -0.009,inactive: -0.008,inactive: -0.071,inactive: 0.037,inactive: 0.088,inactive: 0.032,inactive: -0.002
ITCH (UniProt Q96J02),inactive: 0.028,inactive: 0.017,inactive: -0.058,inactive: -0.012,inactive: -0.011,inactive: -0.052,inactive: -0.006,inactive: 0.05,inactive: 0.007,inactive: 0.038
INTS6 (UniProt Q9UL03),inactive: 0.142,inactive: 0.033,inactive: -0.07,inactive: -0.132,inactive: 0.027,inactive: 0.003,inactive: -0.066,inactive: 0.03,inactive: 0.076,inactive: 0.058
IQGAP3 (UniProt Q86VI3),inactive: -0.003,inactive: 0.008,inactive: 0.023,inactive: 0.006,inactive: 0.039,inactive: -0.055,inactive: -0.048,inactive: 0.073,inactive: -0.164,inactive: -0.019
ISCA2 (UniProt Q86U28),inactive: 0.013,inactive: 0.061,inactive: 0.012,inactive: -0.079,inactive: -0.05,inactive: 0.001,inactive: 0.224,inactive: -0.041,inactive: -0.039,inactive: 0.071
ISYNA1 (UniProt Q9NPH2),inactive: 0.039,inactive: -0.029,inactive: 0.01,inactive: -0.032,inactive: -0.013,inactive: -0.022,inactive: -0.013,inactive: 0.006,inactive: 0.002,inactive: -0.036
KBTBD8 (UniProt Q8NFY9),inactive: 0.019,inactive: 0.013,inactive: 0.005,inactive: 0.02,inactive: 0.008,inactive: 0.043,inactive: 0.033,inactive: -0.015,inactive: -0.033,inactive: 0
ISY1 isoform 1 (UniProt Q9ULR0),inactive: 0.012,inactive: 0.026,inactive: 0.002,inactive: -0.024,inactive: -0.082,inactive: -0.036,inactive: -0.018,inactive: 0.014,inactive: -0.012,inactive: -0.01
JMJD4 (UniProt Q9H9V9),inactive: -0.049,inactive: 0.006,inactive: -0.157,inactive: 0.017,inactive: -0.142,inactive: 0.028,inactive: 0.016,inactive: 0.108,inactive: 0.01,inactive: 0.129
KAZN (UniProt Q674X7),inactive: -0.011,inactive: -0.032,inactive: 0.07,inactive: 0.021,inactive: 0.007,inactive: -0.011,inactive: -0.06,inactive: 0.015,inactive: 0.017,inactive: -0.143
JAGN1 (UniProt Q8N5M9),inactive: 0.017,inactive: 0.046,inactive: -0.036,inactive: -0.048,inactive: 0.082,inactive: 0.055,inactive: -0.002,inactive: 0.003,inactive: -0.035,inactive: 0.015
KDELR3 (UniProt O43731),inactive: 0.05,inactive: 0.004,inactive: 0.038,inactive: -0.094,inactive: -0.114,inactive: 0.176,inactive: -0.104,inactive: -0.001,inactive: -0.05,inactive: 0.245
IPO8 (UniProt O15397),inactive: -0.042,inactive: 0.028,inactive: 0.008,inactive: -0.004,inactive: -0.006,inactive: -0.016,inactive: 0.031,inactive: 0.011,inactive: 0.022,inactive: -0.005
KCTD10 (UniProt Q9H3F6),inactive: 0.039,inactive: 0.003,inactive: -0.021,inactive: -0.021,inactive: -0.038,inactive: 0.02,inactive: -0.065,inactive: -0.009,inactive: 0.052,inactive: -0.106
IPO13 (UniProt O94829),inactive: 0.019,inactive: -0.05,inactive: -0.074,inactive: 0.029,inactive: 0.04,inactive: -0.018,inactive: 0.021,inactive: 0.052,inactive: 0.001,inactive: -0.002
IPO9 (UniProt Q96P70),inactive: -0.018,inactive: 0.021,inactive: 0.02,inactive: 0.002,inactive: 0.015,inactive: -0.068,inactive: -0.006,inactive: 0,inactive: -0.013,inactive: -0.006
IRF2 (UniProt P14316),inactive: 0.001,inactive: -0.012,inactive: 0.049,inactive: 0.059,inactive: -0.001,inactive: 0.029,inactive: -0.021,inactive: -0.028,inactive: 0.002,inactive: 0.02
JPT2 isoform 3 (UniProt Q9H910),inactive: -0.007,inactive: 0.023,inactive: -0.007,inactive: 0.005,inactive: -0.033,inactive: -0.014,inactive: 0.078,inactive: -0.035,inactive: -0.03,inactive: -0.005
IRAK1 (UniProt P51617),inactive: -0.036,inactive: 0.011,inactive: 0.051,inactive: 0.112,inactive: 0.131,inactive: -0.145,inactive: 0.016,active: 0.373,inactive: 0.005,inactive: -0.005
JMJD1C (UniProt Q15652),inactive: 0.026,inactive: -0.024,inactive: -0.012,inactive: 0,inactive: -0.001,inactive: -0.033,inactive: -0.036,inactive: 0.057,inactive: 0.023,inactive: 0.073
KCNAB2 (UniProt Q13303),inactive: 0.021,inactive: -0.032,inactive: 0.017,inactive: 0.01,inactive: 0.058,inactive: -0.028,inactive: -0.016,inactive: 0.034,inactive: -0.026,inactive: 0.007
INTS2 (UniProt Q9H0H0),inactive: 0.035,inactive: 0.001,inactive: -0.114,inactive: -0.009,inactive: 0.068,inactive: -0.004,inactive: 0.094,inactive: 0.033,inactive: -0.136,inactive: -0.096
KDM1B (UniProt Q8NB78),inactive: 0.049,inactive: -0.019,inactive: -0.039,inactive: -0.077,inactive: 0.049,inactive: -0.041,inactive: 0.105,inactive: 0.027,inactive: 0.02,inactive: 0.054
IRF2BPL (UniProt Q9H1B7),inactive: 0.001,inactive: 0.005,inactive: -0.043,inactive: 0.054,inactive: -0.059,inactive: 0.032,inactive: -0.069,inactive: -0.01,inactive: 0,inactive: 0
ISCA1 isoform 2 (UniProt Q9BUE6),inactive: 0.043,inactive: 0.251,inactive: 0,inactive: 0.111,inactive: -0.002,inactive: 0.025,inactive: 0.026,inactive: -0.05,inactive: -0.007,inactive: 0.013
IST1 isoform 2 (UniProt P53990),inactive: -0.145,inactive: 0.064,inactive: -0.012,inactive: 0.112,inactive: -0.045,inactive: -0.065,inactive: -0.266,inactive: 0.048,inactive: -0.017,inactive: 0.043
IPO7 (UniProt O95373),inactive: -0.009,inactive: -0.013,inactive: -0.015,inactive: 0,inactive: -0.016,inactive: -0.054,inactive: -0.019,inactive: 0.027,inactive: -0.006,inactive: -0.021
KAT7 (UniProt O95251),inactive: -0.01,inactive: 0.001,inactive: 0.016,inactive: -0.115,inactive: -0.064,inactive: -0.096,inactive: -0.074,inactive: 0.051,inactive: 0.053,inactive: -0.055

# Just log2 fold change [1] and log2 fold change [5], for some of the entries so far:
Target,log2 fold change [1],log2 fold change [5]
IPO7 (UniProt O95373),inactive: -0.013,inactive: -0.006
KAT7 (UniProt O95251),inactive: 0.001,inactive: 0.053

# Part of the list above, tab-delimited:
Target	log2 fold change (nilotinib)	log2 fold change [1]	log2 fold change (dasatinib)	log2 fold change [2]	log2 fold change [3]	log2 fold change (quisinostat)	log2 fold change (tipifarnib)	log2 fold change [4]	log2 fold change [5]	log2 fold change [6]
KCTD10 (UniProt Q9H3F6)	inactive: 0.039	inactive: 0.003	inactive: -0.021	inactive: -0.021	inactive: -0.038	inactive: 0.02	inactive: -0.065	inactive: -0.009	inactive: 0.052	inactive: -0.106
IPO13 (UniProt O94829)	inactive: 0.019	inactive: -0.05	inactive: -0.074	inactive: 0.029	inactive: 0.04	inactive: -0.018	inactive: 0.021	inactive: 0.052	inactive: 0.001	inactive: -0.002
